Laboratory results: patent US20220389113A1, “BINDING PROTEINS TO CUB DOMAIN-CONTAINING PROTEIN (CDCP1)” (COMMONWEALTH SCIENTIFIC AND INDUSTRIAL RESEARCH ORGANISATION, priority 2019, published 2022)
No constants are given. Whether binding was seen depends on the method and setting. For some assays here: Binding seen in cells or lysates may run through a third protein. Some results given as binding are weak or reduced against the parent protein; the word gives no strength.

Key:
[1] = molecular target: T1, CDCP1 carboxyl-terminal fragment (CDCP1-CTF), 70 kDa (human) (UniProt Q9H5V8); experiment: co-immunoprecipitation with 10D7, whose site lies in ATF; Western blot with 4115 and 2666
T1 sequence: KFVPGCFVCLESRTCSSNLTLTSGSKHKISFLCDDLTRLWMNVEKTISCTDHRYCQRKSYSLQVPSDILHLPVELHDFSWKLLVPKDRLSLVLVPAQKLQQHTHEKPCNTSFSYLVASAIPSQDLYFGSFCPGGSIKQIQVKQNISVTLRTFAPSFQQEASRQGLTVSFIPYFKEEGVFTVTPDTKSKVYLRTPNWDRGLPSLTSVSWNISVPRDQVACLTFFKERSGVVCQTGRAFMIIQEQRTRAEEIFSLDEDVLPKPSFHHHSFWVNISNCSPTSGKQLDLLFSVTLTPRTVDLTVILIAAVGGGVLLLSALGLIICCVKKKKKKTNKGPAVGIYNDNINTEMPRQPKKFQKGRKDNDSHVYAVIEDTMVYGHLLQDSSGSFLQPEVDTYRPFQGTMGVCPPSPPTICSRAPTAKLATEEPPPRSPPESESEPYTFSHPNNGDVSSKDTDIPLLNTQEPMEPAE

[2] = molecular target: T1, CDCP1 carboxyl-terminal fragment (CDCP1-CTF), 70 kDa (human); experiment: size-exclusion chromatography of trypsin-cleaved recombinant CDCP1-ECD; products of ~45 and 55 kDa co-eluted with intact ECD
[3] = molecular target: T1, CDCP1 carboxyl-terminal fragment (CDCP1-CTF), 70 kDa (human); experiment: co-immunoprecipitation with 10D7 (binds the ATF), CTF detected with 4115
[4] = molecular target: T1, CDCP1 carboxyl-terminal fragment (CDCP1-CTF), 70 kDa (human); experiment: size-exclusion chromatography of untreated or trypsin treated recombinant CDCP1-ECD, Coomassie gel of the fractions; paragraph 333 reads it as ATF-CTF interaction
[5] = molecular target: T1, CDCP1 carboxyl-terminal fragment (CDCP1-CTF), 70 kDa (human); experiment: summary of co-IP, SEC and reducing/non-reducing Western blots

binding [1]: binds | binding [2]: binds | binding [3]: binds | binding [4]: binds | binding [5]: binds
B1: CDCP1 amino-terminal fragment (CDCP1-ATF), 65 kDa (receptor)
chain: FEIALPRESNITVLIKLGTPTLLAKPCYIVISKRHITMLSIKSGERIVFTFSCQSPENHFVIEIQKNIDCMSGPCPFGEVQLQPSTSLLPTLNRTFIWDVKAHKSIGLELQFSIPRLRQIGPGESCPDGVTHSISGRIDATVVRIGTFCSNGTVSRIKMQEGVKMALHLPWFHPRNVSGFSIANRSSIKRLCIIESVFEGEGSATLMSANYPEGFPEDELMTWQFVVPAHLRASVSFLNFNLSNCERKEERVEYYIPGSTTNPEVFKLEDKQPGNMAGNFNLSLQGCDQDAQSPGILRLQFQVLVQHPQNESNKIYVVDLSNERAMSLTIEPRPVKQSR
notes: Product of proteolytic cleavage of CDCP1
